# Source: the supplement of paper PMC8728848
# Some of the results follow.
# B1: BabA (Helicobacter pylori), O52269_HELPY (protein)
# chain: AEDDGFYMSAGYQIGEAAQMVKNTKGIQELSDNYENLSNLLTRYSTLNTLIKLSADPSAVNAARENLGASAKNLIGDTKNSPAYQAVLLAINAAVGFWNVVGYVTQCGGNANGQKSTSSTTIFNNEPGYRSTSITCSLNGHMPGYYGPMSIENFKKLNEAYQILQTALKNGLPALKENNGTVNVTYSYTCSGEGNDNCSLQTTGVTNQNNGTKTETQTIDGKSVTTTISSKVVDSQ
# How the values were obtained:
# Assay in all cases: glycan array binding signal (z-score within array); higher = stronger binding
# Conditions in all cases: glycan notation: IUPAC condensed, linker removed
# Fuc(a1-2)Gal = biological target: Fuc(a1-2)Gal
# In short: (§1)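 Negative Z-scores can be read as non-binding. The Z-score is calculated within each array and then averaged across arrays of one protein sequence at different concentrations or buffers and across linkers. Arrays, 3228 in all, were curated from the Consortium for Functional Glycomics database and kept only where the protein sequence was available.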
# Fuc(a1-2)Gal(b1-3)GalNAc = biological target: Fuc(a1-2)Gal(b1-3)GalNAc
# In short: as §1
# [1] = biological target: Fuc(a1-2)Gal(b1-3)GalNAc(a1-3)[Fuc(a1-2)]Gal(b1-4)Glc
# In short: as §1
# [2] = biological target: Fuc(a1-2)Gal(b1-3)GalNAc(a1-3)[Fuc(a1-2)]Gal(b1-4)GlcNAc
# In short: as §1
# [3] = biological target: Fuc(a1-2)Gal(b1-3)GalNAc(b1-3)Gal
# In short: as §1
# [4] = biological target: Fuc(a1-2)Gal(b1-3)GalNAc(b1-3)Gal(a1-4)Gal(b1-4)Glc
# In short: as §1
# [5] = biological target: Fuc(a1-2)Gal(b1-3)GalNAc(b1-4)[Neu5Ac(a2-3)]Gal(b1-4)Glc
# In short: as §1
# Fuc(a1-2)Gal(b1-3)GlcNAc = biological target: Fuc(a1-2)Gal(b1-3)GlcNAc
# In short: as §1
# [6] = biological target: Fuc(a1-2)Gal(b1-3)GlcNAc(b1-2)Man(a1-3)[Fuc(a1-2)Gal(b1-3)GlcNAc(b1-2)Man(a1-6)]Man(b1-4)GlcNAc(b1-4)GlcNAc
# In short: as §1
# [7] = biological target: Fuc(a1-2)Gal(b1-3)GlcNAc(b1-2)Man(a1-3)[Fuc(a1-2)Gal(b1-3)GlcNAc(b1-2)Man(a1-6)]Man(b1-4)GlcNAc(b1-4)[Fuc(a1-6)]GlcNAc
# In short: as §1
# [8] = biological target: Fuc(a1-2)Gal(b1-3)GlcNAc(b1-3)Gal(b1-4)Glc
# In short: as §1
# [9] = biological target: Fuc(a1-2)Gal(b1-3)GlcNAc(b1-3)GalNAc
# In short: as §1
# [10] = biological target: Fuc(a1-2)Gal(b1-3)GlcNAc(b1-3)[Fuc(a1-2)Gal(b1-3)GlcNAc(b1-6)]GalNAc
# In short: as §1
# [11] = biological target: Fuc(a1-2)Gal(b1-3)GlcNAc(b1-3)[Gal(b1-4)GlcNAc(b1-6)]Gal(b1-4)Glc
# In short: as §1
# [12] = biological target: Fuc(a1-2)Gal(b1-3)GlcNAc(b1-3)[Gal(b1-4)[Fuc(a1-3)]GlcNAc(b1-6)]Gal(b1-4)Glc
# In short: as §1
# [13] = biological target: Fuc(a1-2)Gal(b1-3)GlcNAc(b1-3)[Neu5Ac(a2-6)Gal(b1-4)GlcNAc(b1-6)]Gal(b1-4)Glc
# In short: as §1
# [14] = biological target: Fuc(a1-2)Gal(b1-3)GlcNAc6S
# In short: as §1
# [15] = biological target: Fuc(a1-2)Gal(b1-3)[Fuc(a1-4)]GlcNAc
# In short: as §1
# [16] = biological target: Fuc(a1-2)Gal(b1-3)[Fuc(a1-4)]GlcNAc(b1-2)Man(a1-3)[Fuc(a1-2)Gal(b1-3)[Fuc(a1-4)]GlcNAc(b1-2)Man(a1-3)]Man(b1-4)GlcNAc(b1-4)GlcNAc
# In short: as §1
# [17] = biological target: Fuc(a1-2)Gal(b1-3)[Fuc(a1-4)]GlcNAc(b1-2)Man(a1-3)[Fuc(a1-2)Gal(b1-3)[Fuc(a1-4)]GlcNAc(b1-2)Man(a1-6)]Man(b1-4)GlcNAc(b1-4)GlcNAc
# In short: as §1
# [18] = biological target: Fuc(a1-2)Gal(b1-3)[Fuc(a1-4)]GlcNAc(b1-2)Man(a1-3)[Fuc(a1-2)Gal(b1-3)[Fuc(a1-4)]GlcNAc(b1-2)Man(a1-6)]Man(b1-4)GlcNAc(b1-4)[Fuc(a1-6)]GlcNAc(b1-4)[Fuc(a1-6)]GlcNAc
# In short: as §1
# [19] = biological target: Fuc(a1-2)Gal(b1-3)[Fuc(a1-4)]GlcNAc(b1-3)[Fuc(a1-3)[Gal(b1-4)]GlcNAc(b1-6)]Gal(b1-4)Glc
# In short: as §1
# [20] = biological target: Fuc(a1-2)Gal(b1-3)[Fuc(a1-4)]GlcNAc(b1-3)[Gal(b1-4)GlcNAc(b1-6)]Gal(b1-4)Glc
# In short: as §1
# [21] = biological target: Fuc(a1-2)Gal(b1-4)Fuc(a1-3)]GlcNAc(b1-2)Man(a1-3)[Fuc(a1-2)Gal(b1-4)[Fuc(a1-3)]GlcNAc(b1-2)Man(a1-6)]Man(b1-4)GlcNAc(b1-4)GlcNAc
# In short: as §1
# Fuc(a1-2)Gal(b1-4)Glc = biological target: Fuc(a1-2)Gal(b1-4)Glc
# In short: as §1
# Fuc(a1-2)Gal(b1-4)Glc6S = biological target: Fuc(a1-2)Gal(b1-4)Glc6S
# In short: as §1
# Fuc(a1-2)Gal(b1-4)GlcNAc = biological target: Fuc(a1-2)Gal(b1-4)GlcNAc
# In short: as §1
# [22] = biological target: Fuc(a1-2)Gal(b1-4)GlcNAc(b1-2)Man
# In short: as §1
# [23] = biological target: Fuc(a1-2)Gal(b1-4)GlcNAc(b1-2)Man(a1-3)[Fuc(a1-2)Gal(b1-4)GlcNAc(b1-2)Man(a1-6)]Man(b1-4)GlcNAc(b1-4)GlcNAc
# In short: as §1
# [24] = biological target: Fuc(a1-2)Gal(b1-4)GlcNAc(b1-2)Man(a1-3)[Fuc(a1-2)Gal(b1-4)GlcNAc(b1-2)Man(a1-6)]Man(b1-4)GlcNAc(b1-4)[Fuc(a1-6)]GlcNAc
# In short: as §1
binder,measurement,setting,value
B1,glycan array binding signal (z-score),Fuc(a1-2)Gal,-0.534
same,glycan array binding signal (z-score),Fuc(a1-2)Gal(b1-3)GalNAc,0.072
same,glycan array binding signal (z-score),[1],-0.546
same,glycan array binding signal (z-score),[2],-0.655
same,glycan array binding signal (z-score),[3],-0.369
same,glycan array binding signal (z-score),[4],0.152
same,glycan array binding signal (z-score),[5],0.223
same,glycan array binding signal (z-score),Fuc(a1-2)Gal(b1-3)GlcNAc,-0.531
same,glycan array binding signal (z-score),[6],1.1
same,glycan array binding signal (z-score),[7],-0.237
same,glycan array binding signal (z-score),[8],-0.27
same,glycan array binding signal (z-score),[9],0.508
same,glycan array binding signal (z-score),[10],0.335
same,glycan array binding signal (z-score),[11],-0.409
same,glycan array binding signal (z-score),[12],-1.21
same,glycan array binding signal (z-score),[13],-0.173
same,glycan array binding signal (z-score),[14],-0.328
same,glycan array binding signal (z-score),[15],-0.29
same,glycan array binding signal (z-score),[16],1.34
same,glycan array binding signal (z-score),[17],-0.775
same,glycan array binding signal (z-score),[18],0.081
same,glycan array binding signal (z-score),[19],-0.182
same,glycan array binding signal (z-score),[20],-0.21
same,glycan array binding signal (z-score),[21],3.3
same,glycan array binding signal (z-score),Fuc(a1-2)Gal(b1-4)Glc,-0.228
same,glycan array binding signal (z-score),Fuc(a1-2)Gal(b1-4)Glc6S,0.321
same,glycan array binding signal (z-score),Fuc(a1-2)Gal(b1-4)GlcNAc,0.041
same,glycan array binding signal (z-score),[22],0.472
same,glycan array binding signal (z-score),[23],-0.299
same,glycan array binding signal (z-score),[24],0.69

# Two entries drawn at random from the list so far, as already listed:
binder,measurement,setting,value
B1,glycan array binding signal (z-score),[18],0.081
same,glycan array binding signal (z-score),Fuc(a1-2)Gal(b1-4)Glc,-0.228
